Source: PubChem BioAssay AID1053133 (Broad Institute, 2014).

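Plate-reader measure of the Venus reporter marking one vaccinia stage in infected cells (the cell line is not named here); read time unknown.
The test concentration is not given here.
Percent change in Venus reporter signal; lower (more negative) values mean stronger inhibition of that viral stage.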

Values are in %.
The controls that fix the scale are not given here.
Common to all entries: measured here: Venus reporter, other viral stage.
This is a side read-out of the assay, for part of the compounds, not drawn at random.

compound,activity change (Venus) (%)
O=C(Nc1cccc(F)c1)N1CC(=O)N2[C@H](CO)[C@@H](c3ccc(-c4cccc(F)c4)cc3)[C@@H]2C1,-45.6
C[C@H](CO)N1C[C@H](C)[C@H](CN(C)S(=O)(=O)c2ccc(Cl)cc2)OCCCC[C@H](C)Oc2ccc(NC(=O)CCC(F)(F)F)cc2C1=O,-27.28
C[C@H](CO)N1C[C@H](C)[C@@H](CN(C)Cc2ccncc2)Oc2ccc(NC(=O)Nc3ccc(C(F)(F)F)cc3)cc2C1=O,-26.19
COC(=O)[C@@]1(CCC(=O)OC(C)(C)C)N=C(c2ccc(OCCCO)cc2)O[C@H]1c1ccccc1,-56.21
C[C@@H]1CCCCO[C@@H](CN(C)Cc2ccc3c(c2)OCO3)[C@H](C)CN([C@H](C)CO)C(=O)c2cc(NC(=O)Nc3ccccc3)ccc2O1,-50.11
C[C@@H]1CN([C@@H](C)CO)S(=O)(=O)c2ccc(C#CCC3CCCC3)cc2O[C@@H]1CN(C)C(=O)CN(C)C,-64.26
C[C@H](CO)N1C[C@H](C)[C@H](CN(C)Cc2ccc3c(c2)OCO3)OCCCC[C@H](C)Oc2ccc(NC(=O)C3CCCCC3)cc2C1=O,-36.24
C[C@@H]1CN([C@H](C)CO)C(=O)c2cc(C#Cc3ccc(F)cc3)cnc2O[C@H]1CN(C)C(=O)Nc1ccc(F)cc1,-41.49
CC(C)CC#Cc1ccc([C@H]2[C@@H](CO)N3C(=O)CN(S(=O)(=O)c4cccc(F)c4)C[C@@H]23)cc1,-36.82
CN(C)CC(=O)N[C@H]1C[C@@H]2O[C@H](CO)CC[C@@H]2O[C@@H]1CCc1ccc(C#Cc2ccccc2)cc1,-75.69
C[C@@H]1CCCCO[C@H](CN(C)Cc2ccc(C(F)(F)F)cc2)[C@H](C)CN([C@H](C)CO)C(=O)c2cc(NS(=O)(=O)c3ccc(Cl)cc3)ccc2O1,-43.63
C[C@@H]1CCCCO[C@@H](CN(C)Cc2ccccc2)[C@H](C)CN([C@@H](C)CO)C(=O)c2cc(NC(=O)Nc3ccc(C(F)(F)F)cc3)ccc2O1,-19.48
COc1ccc(-c2ccc([C@H]3[C@H]4CN(C(=O)c5ccc(F)cc5)CCCCN4[C@H]3CO)cc2)cc1,-41.46
O=C(Cc1ccccn1)N1CC(=O)N2[C@H](C1)[C@H](c1ccc(C#CCC3CCCC3)cc1)[C@@H]2CO,-26.08
COc1ccc(CN(C)C[C@@H]2Oc3ccc(NS(=O)(=O)c4ccc(F)cc4)cc3CC(=O)N([C@@H](C)CO)C[C@H]2C)cc1,-41.24
C[C@H](CO)N1C[C@H](C)[C@H](CN(C)Cc2ccc(Cl)c(Cl)c2)Oc2ccc(NC(=O)C3CCCCC3)cc2CC1=O,-27.99
C[C@H]1CN([C@@H](C)CO)S(=O)(=O)c2ccc(C#CC3CCCCC3)cc2O[C@H]1CN(C)C,-75.85
O=C(Nc1cccc(F)c1)N1CCCCN2[C@H](CO)[C@H](c3ccc(-c4ccccc4F)cc3)[C@H]2C1,-79.18
C[C@H](CO)N1C[C@H](C)[C@H](CN(C)C(=O)NC2CCCCC2)OCCCC[C@H](C)Oc2ccc(NC(=O)C3CCCCC3)cc2C1=O,-29.78
C[C@H](CO)N1C[C@H](C)[C@H](CN(C)S(=O)(=O)c2ccc(F)cc2)Oc2cc(C3=CCCC3)ccc2S1(=O)=O,-27.65
C[C@H]1CCCCO[C@H](CN(C)C(=O)Nc2ccc(C(F)(F)F)cc2)[C@@H](C)CN([C@@H](C)CO)C(=O)c2cc(NS(C)(=O)=O)ccc2O1,-56.52
CCS(=O)(=O)N1CCC2(CC1)CN(C(=O)Nc1cccc(F)c1)[C@H](CO)c1c2c2ccc(OC)cc2n1C,-34.46
C[C@H](CO)N1C[C@H](C)[C@H](CN(C)C(=O)Nc2ccc3c(c2)OCO3)Oc2cc(C3=CCCCC3)ccc2S1(=O)=O,-31.43
O=C1CN(S(=O)(=O)Cc2ccccc2)C[C@@H]2[C@H](c3ccc(C#Cc4ccc(F)cc4)cc3)[C@@H](CO)N12,-31.32
COc1ccc(CN(C)C[C@@H]2OCCCC[C@H](C)Oc3ccc(NC(=O)Nc4ccc(F)cc4)cc3C(=O)N([C@@H](C)CO)C[C@H]2C)cc1,-49.33
C[C@@H]1CN([C@@H](C)CO)S(=O)(=O)c2ccc(/C=C/c3ccccc3)cc2O[C@H]1CN(C)C(=O)Nc1cccc(F)c1,-41.83
C[C@@H]1CCCCO[C@@H](CN(C)CC2CCCCC2)[C@H](C)CN([C@H](C)CO)C(=O)c2cc(NS(=O)(=O)c3ccccc3)ccc2O1,-66.44
COc1ccc(CN(C)C[C@@H]2OCCCC[C@H](C)Oc3ccc(NS(=O)(=O)c4ccccc4)cc3C(=O)N([C@H](C)CO)C[C@H]2C)cc1,-42.76
O=C(Nc1ccccc1F)N1CC(=O)N2[C@H](C1)[C@@H](c1ccc(C#Cc3ccccc3)cc1)[C@@H]2CO,-38.82
C[C@H]1CN([C@@H](C)CO)C(=O)c2cc(NC(=O)Nc3ccccc3)ccc2O[C@@H]1CN(C)Cc1ccc(Oc2ccccc2)cc1,-29.95
CCCC#Cc1ccc([C@H]2[C@@H](CO)N3CCCCN(C(=O)c4ccc5c(c4)OCO5)C[C@@H]23)cc1,-47.8
C[C@@H]1CN([C@H](C)CO)S(=O)(=O)c2ccc(C3=CCCCC3)cc2O[C@H]1CN(C)Cc1cccnc1,-64.9
CCCNC(=O)C[C@H]1CC[C@@H]2[C@@H](COc3ccc(NC(=O)c4ccc(C(F)(F)F)cc4)cc3C(=O)N2C)O1,-31.57
COc1ccccc1CN1CC[C@@H]2[C@H](CO)Nc3ccc(C#Cc4ccccc4)cc3[C@@H]21,-51.99
C[C@@H]1CN([C@H](C)CO)C(=O)c2cccc(NC(=O)Nc3ccc(C(F)(F)F)cc3)c2O[C@@H]1CN(C)C(=O)Nc1ccc(F)cc1,-58.01
COc1ccc(C#Cc2ccc3c(c2)O[C@@H](CN(C)C(=O)CN2CCOCC2)[C@H](C)CN([C@@H](C)CO)S3(=O)=O)cc1,-35.46
C[C@@H]1CN([C@H](C)CO)S(=O)(=O)c2ccc(/C=C/c3ccccc3)cc2O[C@@H]1CN(C)C(=O)Nc1cccc(F)c1,-48.75
COc1ccc(S(=O)(=O)Nc2ccc3c(c2)CC(=O)N([C@@H](C)CO)C[C@@H](C)[C@@H](CN(C)Cc2ccc(-c4ccccc4)cc2)O3)cc1,-50.87
COc1ccccc1C#Cc1ccc([C@H]2[C@@H](CO)N3CCCCN(C(=O)C4CCCC4)C[C@@H]23)cc1,-52.28
COc1ccc2c3c(n(C)c2c1)[C@@H](CO)N(C(=O)Nc1ccc(F)cc1)CC31CCN(Cc2ccccn2)CC1,-34.61
C[C@@H]1CCCCO[C@@H](CN(C)C(=O)C2CCCCC2)[C@H](C)CN([C@H](C)CO)C(=O)c2cc(NC(=O)c3ccccc3)ccc2O1,-41.99
Cc1ccc(S(=O)(=O)N(C)C[C@H]2Oc3c(NC(=O)C4CCCCC4)cccc3C(=O)N([C@@H](C)CO)C[C@H]2C)cc1,-17.79
CC(C)NC(=O)N1CCCCN2[C@H](CO)[C@H](c3ccc(C#Cc4ccccc4F)cc3)[C@@H]2C1,-46.65
CN1C(=O)c2cc(NC(=O)c3ccc(F)c(F)c3)ccc2OC[C@H]2O[C@H](CC(=O)N[C@@H]3CCN(Cc4ccccc4)C3)CC[C@H]21,-23

The first 3 entries again:

For O=C(Nc1cccc(F)c1)N1CC(=O)N2[C@H](CO)[C@@H](c3ccc(-c4cccc(F)c4)cc3)[C@@H]2C1 the result was activity change (Venus) -45.6%.
For C[C@H](CO)N1C[C@H](C)[C@H](CN(C)S(=O)(=O)c2ccc(Cl)cc2)OCCCC[C@H](C)Oc2ccc(NC(=O)CCC(F)(F)F)cc2C1=O the result was activity change (Venus) -27.28%.
For C[C@H](CO)N1C[C@H](C)[C@@H](CN(C)Cc2ccncc2)Oc2ccc(NC(=O)Nc3ccc(C(F)(F)F)cc3)cc2C1=O the result was activity change (Venus) -26.19%.